This is one part of the list.

By UniProt entry, the sequences of proteins in these tests, tags left out.
UniProt Q0JBA9, entry or part of it: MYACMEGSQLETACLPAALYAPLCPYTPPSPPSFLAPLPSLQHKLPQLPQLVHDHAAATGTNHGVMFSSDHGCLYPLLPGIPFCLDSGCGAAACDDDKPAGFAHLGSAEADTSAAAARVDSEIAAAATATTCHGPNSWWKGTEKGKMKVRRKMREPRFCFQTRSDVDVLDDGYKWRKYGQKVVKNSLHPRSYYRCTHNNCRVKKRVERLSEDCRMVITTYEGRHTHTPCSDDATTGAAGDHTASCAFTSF

The test concerns the target OsWRKY34 (Oryza sativa, UniProt Q0JBA9 1-250). As to the kind of experiment: protein-binding microarray (RPBM); PBS, 2% BSA, 51.3 ng/ul salmon testes DNA, 50 uM zinc acetate, 200 nM TF, 25 C, 1 h; high values mean tight binding. The following applies: protein: recombinant; tags: N-terminal polyhistidine and DsRed monomer fusion (pET32a); label: CyDye5-dUTP incorporated in the synthesized complementary strand; 3' TTTTT single-stranded linker to array surface; dsDNA, one strand shown. In outline:
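Using Ni–NTA, transcription factors fused N-terminally to polyhistidine and DsRed were purified after expression in E. coli BL21-CodonPlus. These were incubated at 200 nM with a blocked, double-stranded custom Agilent array for 1 h at 25 °C in a buffer containing 50 µM zinc acetate, and the array was washed. The binding signal is per-feature fluorescence intensity (arbitrary units) on an Axon 4000B scanner.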
As to “TTAAGGTATGCTCCATGTTGCTTATTCCTTACTTAAATACCGGAGTCACCTAGTGCAG”, the binding signal was 9130 fluorescence intensity (a.u.).

For “CTTCCGTCAATTCTCGATCGTTTTCCGTCCGCCTTGATCGCGGAGTCACCTAGTGCAG”, the binding signal is 10200 fluorescence intensity (a.u.).

Regarding “GTCTCTTGACCAGTTTTCTCAGTCTATCACGCAAAAATTACGGAGTCACCTAGTGCAG”, the binding signal is 9080 fluorescence intensity (a.u.).

Turning to “ACTTTTATCACTGTCCATCTCCTCTATGCCGTGGACATGACGGAGTCACCTAGTGCAG”, the binding signal was 8500 fluorescence intensity (a.u.).

Take “TAGTCGCTGTTCCAGTCTTCGAAATATACACTATATTATCCGGAGTCACCTAGTGCAG”: the binding signal is 9980 fluorescence intensity (a.u.).

For the sequence “TGTTTGACACCATTGACTTTTTAGTATGTGTTTGACCATTCGGAGTCACCTAGTGCAG”, the binding signal is 13200 fluorescence intensity (a.u.).

Regarding “AGTTGTCCATTATTCAGTGCCTTGTAACAGGGTAATATTCCGGAGTCACCTAGTGCAG”, the binding signal was 10600 fluorescence intensity (a.u.).

“GTTCGTATCAGCACCTGCACCTGCACCGAGTTCTGTGATCCGGAGTCACCTAGTGCAG”: the binding signal is 8740 fluorescence intensity (a.u.).

As to “TCATCCTCTTGGTAGCCCTCGTTTAGGCGGCGTTGCTGTCCGGAGTCACCTAGTGCAG”, the binding signal was 8070 fluorescence intensity (a.u.).

For “CCCACACACGTACGCGCCATATTGTCATACGATCATCACCCGGAGTCACCTAGTGCAG”, the binding signal is 8870 fluorescence intensity (a.u.).

As to “CTTTTTTTAACATGTTTGATCGTCTTATTTAAAAAATTTACGGAGTCACCTAGTGCAG”, the binding signal was 9130 fluorescence intensity (a.u.).

For the sequence “CGTATGCTCCTTAGGTGATACTATGTCCCTATTTGCTTCACGGAGTCACCTAGTGCAG”, the binding signal is 8180 fluorescence intensity (a.u.).

As to “AGTAGCAGAGGTCGTTTTGTTTTGATTTTTTTTAACTTTACGGAGTCACCTAGTGCAG”, the binding signal was 8590 fluorescence intensity (a.u.).

For “AGGTGGGGTCTGGTGAATTCTACCTGTCTATTCCAATGACCGGAGTCACCTAGTGCAG”, the binding signal is 8040 fluorescence intensity (a.u.).

In the case of “ACTGATTGTCCAGCGCTATTCTGTTATGTGTGATTTTAACCGGAGTCACCTAGTGCAG”, the binding signal is 10300 fluorescence intensity (a.u.).

Take “TGTGAAGTCGTTGCTTATTAGTTGTCCCGAATTATTAACCCGGAGTCACCTAGTGCAG”: the binding signal is 8040 fluorescence intensity (a.u.).

With “ATTTTATTTATTTTTAAGCTCTTGTTCATATTGTTCAATTCGGAGTCACCTAGTGCAG”, the binding signal was 8060 fluorescence intensity (a.u.).

Regarding “GTCTCATCCCTGTAATCCCTGTTCTAGTGTTCTGTTGAAACGGAGTCACCTAGTGCAG”, the binding signal was 10400 fluorescence intensity (a.u.).

Take “CTCTCGCGCGAGATGTCCGTGACTCTCTTTTCGTTTACACCGGAGTCACCTAGTGCAG”: the binding signal is 8420 fluorescence intensity (a.u.).

On to “CCGGGTGTCATATTTGCAGTCCTTCATCTGAACCGCTAAGCGGAGTCACCTAGTGCAG”, for which the binding signal was 10800 fluorescence intensity (a.u.).

As for “TCATATCCGACGTTTGACCGTTCATCTTATTTGAAAATTTCGGAGTCACCTAGTGCAG”, the binding signal was 10500 fluorescence intensity (a.u.).

Regarding “ACTTGTAGAGGTGTGTCATCTAGGTCCCTAAACTCTCAAACGGAGTCACCTAGTGCAG”, the binding signal is 10100 fluorescence intensity (a.u.).

Consider “TGGGCTGAAGTTGTTTGTAGCGCATCTGTCATCTGTCTCGCGGAGTCACCTAGTGCAG”, for which the binding signal is 10500 fluorescence intensity (a.u.).

As for “TACACTCCCTAGCGCAACTTGCAACTTTGCCAGCCATGGCCGGAGTCACCTAGTGCAG”, the binding signal is 10100 fluorescence intensity (a.u.).

“CCTTCGCCTTCCTCGGCACCCTGCAGTTAGCCTTGTCCGCCGGAGTCACCTAGTGCAG”: the binding signal is 8830 fluorescence intensity (a.u.).

Consider “CATCCATCGTAATATGGGCCGGGCTTCTTTTGTGAATTTCCGGAGTCACCTAGTGCAG”, for which the binding signal was 11800 fluorescence intensity (a.u.).

“AATCACTTGAAGTTTGACATTCCACCTCATAAGTTATTTTCGGAGTCACCTAGTGCAG”: the binding signal was 10500 fluorescence intensity (a.u.).

In the case of “ATGACTTTAATATGTTAGCTTTTCATGCATGTGTCAATTTCGGAGTCACCTAGTGCAG”, the binding signal is 8700 fluorescence intensity (a.u.).

In the case of “GGAGGGGAGGGGTGGCCCGGGACCGTTGCCCGTCTCGCAGCGGAGTCACCTAGTGCAG”, the binding signal was 11500 fluorescence intensity (a.u.).

On to “TGTTGTTTGCTGTTGTTGCCTTGCTGCGCAAAGATTTGGTCGGAGTCACCTAGTGCAG”, for which the binding signal was 8050 fluorescence intensity (a.u.).

As to “GGACCGTTGGATGGGTGCACGAAAAATGTTTGTACGGCTGCGGAGTCACCTAGTGCAG”, the binding signal was 9020 fluorescence intensity (a.u.).

With “TATACTCCCTCCATTTCAAAATGTTTGACACCGTTGACTTCGGAGTCACCTAGTGCAG”, the binding signal was 9590 fluorescence intensity (a.u.).

For the sequence “CAACCGCTCGAGCAAAGCCTCCAAAACCCTAGCGCTCTCTCGGAGTCACCTAGTGCAG”, the binding signal was 8300 fluorescence intensity (a.u.).

Take “ATGTTGGTCCGTCAGTTACACTGGGCCTCTCTGCTGTGTTCGGAGTCACCTAGTGCAG”: the binding signal was 8920 fluorescence intensity (a.u.).

“AGGCCATCTTTGTGCACGAAACTCTGCTGATCGGGCCAAACGGAGTCACCTAGTGCAG”: the binding signal is 9140 fluorescence intensity (a.u.).

Turning to “ATCCTCATCCTCCGCCACCGCCGCCTGCGCCGATCCCCATCGGAGTCACCTAGTGCAG”, the binding signal is 9980 fluorescence intensity (a.u.).

As to “CCTATTCCTTGTCACCACTGCCCAGCCCATACACGGCCCACGGAGTCACCTAGTGCAG”, the binding signal is 11300 fluorescence intensity (a.u.).

As for “AGCAAATTCCTTTATGTTTTTTCTTATGTCTTCTCCAGCTCGGAGTCACCTAGTGCAG”, the binding signal is 9040 fluorescence intensity (a.u.).

With “GGCATCAAAGTGAACAAGCCCTAAACCTTATACTATCTTCCGGAGTCACCTAGTGCAG”, the binding signal was 8080 fluorescence intensity (a.u.).

“AACTGACACCTTTGAAAAAAACCAAGCCGGCTTTTTTGACCGGAGTCACCTAGTGCAG”: the binding signal is 8200 fluorescence intensity (a.u.).

Turning to “ATGTAATTTTCCGTGTCTATACTTATTTGGTCCAAGAAATCGGAGTCACCTAGTGCAG”, the binding signal was 9110 fluorescence intensity (a.u.).

As to “CACTAGCTTCCTCTCTCCGCTCTGTAATCACATCAGTCCTCGGAGTCACCTAGTGCAG”, the binding signal is 9730 fluorescence intensity (a.u.).

The values above are taken from article PMC7819943, “Rice protein-binding microarrays: a tool to detect cis-acting elements near promoter regions in rice”.
